For the data set, the system named is rats with monocrotaline induced pulmonary arterial hypertension. Kind of data set: Hemodynamic evaluation in anesthetized rats treated with monocrotaline to induce pulmonary arterial hypertension. The note with it: 28 days, MCT rats, mean ± SEM. The class given is in vivo, Sprague-Dawley rats. How it is done: The effects of sildenafil and anagrelide were evaluated in rats with monocrotaline induced pulmonary arterial hypertension. Male Sprague-Dawley rats were orally administered vehicle (variable, see below), anagrelide (1 mg/kg given once daily for 28 days or 2 mg/kg total daily dose, divided into a BID regimen given every day for 28 days starting on Day 1), or sildenafil (30 mg/kg, administered twice daily) (n=10 in each group). Rats received a single injection of monocrotaline (60 mg/kg, s.c.) on Study Day 1. On the twenty-eighth day following monocrotaline dosing, the rats were anesthetized with ketamine/xylazine for terminal monitoring of pulmonary and systemic arterial pressures along with heart rate. The study design for the test article and vehicle administrations are detailed below: […]

These results are taken from US10022377B2, “Method of treating hypertension” (Cipla Limited, priority 2015, dated 2018).

Take `O=C1CN2Cc3c(ccc(Cl)c3Cl)N=C2N1` [Anagrelide, anagrelide]: the “Body Weight” value is recorded as 0.32 ± 0.02 kg (Anagrelide 1 mg/kg once daily oral) and 0.31 ± 0.01 kg (Anagrelide 2 mg/kg/day bid oral).
As for `CCCc1nn(C)c2c(=O)[nH]c(-c3cc(S(=O)(=O)N4CCN(C)CC4)ccc3OCC)nc12` [Sildenafil], the “Body Weight” value (Sildenafil 60 mg/kg/day bid oral) amounted to 0.32 ± 0.01 kg.
